# This is one part of the list.
# B1: LysMD3 (Homo sapiens), Q7Z3D4 (protein)
# chain: MAGRHQNRSFPLPGVQSSGQVHAFGNCSDSDILEEDAEVYELRSRGKEKVRRSTSRDRLDDIIVLTKDIQEGDTLNAIALQYCCTVADIKRVNNLISDQDFFALRSIKIPVKKFSSLTETLCPPKGRQTSRHSSVQYSSEQQEILPANDSLAYSDSAGSFLKEVDRDIEQIVKCTDNKRENLNEVVSALTAQQMRFEPDNKNTQRKDPYYGADWGIG
# Columns and labels:
# Assay in all cases: glycan array binding signal (z-score within array); higher = stronger binding
# Settings in all cases: glycan notation: IUPAC condensed, linker removed
# [1] = molecular target: Neu5Ac(a2-3)Gal(b1-4)GlcNAc(b1-3)[Neu5Ac(a2-3)Gal(b1-4)GlcNAc(b1-6)]GalNAc
# In short: (§1)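 The binding signal is a Z-score computed within each array and averaged over linkers. Arrays of the same protein sequence at different concentrations or buffers were also averaged together. Data originate from 3228 arrays in the Consortium for Functional Glycomics database, kept only where the protein sequence was available.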
# [2] = molecular target: Neu5Ac(a2-3)Gal(b1-4)GlcNAc(b1-6)GalNAc
# In short: as §1
# [3] = molecular target: Neu5Ac(a2-3)Gal(b1-4)GlcNAc(b1-6)[Gal(b1-3)]GalNAc
# In short: as §1
# [4] = molecular target: Neu5Ac(a2-3)Gal(b1-4)GlcNAc(b1-6)[Neu5Ac(a2-3)Gal(b1-3)]GalNAc
# In short: as §1
# [5] = molecular target: Neu5Ac(a2-3)Gal(b1-4)GlcNAc6S
# In short: as §1
# [6] = molecular target: Neu5Ac(a2-3)Gal(b1-4)[Fuc(a1-3)]GlcNAc
# In short: as §1
# [7] = molecular target: Neu5Ac(a2-3)Gal(b1-4)[Fuc(a1-3)]GlcNAc(b1-2)Man
# In short: as §1
# [8] = molecular target: Neu5Ac(a2-3)Gal(b1-4)[Fuc(a1-3)]GlcNAc(b1-3)Gal
# In short: as §1
# [9] = molecular target: Neu5Ac(a2-3)Gal(b1-4)[Fuc(a1-3)]GlcNAc(b1-3)Gal(b1-4)GlcNAc
# In short: as §1
# [10] = molecular target: Neu5Ac(a2-3)Gal(b1-4)[Fuc(a1-3)]GlcNAc(b1-3)Gal(b1-4)[Fuc(a1-3)]GlcNAc(b1-3)Gal(b1-4)[Fuc(a1-3)]GlcNAc
# In short: as §1
# [11] = molecular target: Neu5Ac(a2-3)Gal(b1-4)[Fuc(a1-3)]GlcNAc(b1-3)GalNAc
# In short: as §1
# [12] = molecular target: Neu5Ac(a2-3)Gal(b1-4)[Fuc(a1-3)]GlcNAc(b1-6)[Gal(b1-3)]GalNAc
# In short: as §1
# [13] = molecular target: Neu5Ac(a2-3)Gal(b1-4)[Fuc(a1-3)]GlcNAc(b1-6)[Neu5Ac(a2-3)Gal(b1-3)]GalNAc
# In short: as §1
# [14] = molecular target: Neu5Ac(a2-3)Gal(b1-4)[Fuc(a1-3)]GlcNAc6S
# In short: as §1
# [15] = molecular target: Neu5Ac(a2-3)Gal6S(b1-4)GlcNAc
# In short: as §1
# [16] = molecular target: Neu5Ac(a2-3)Gal6S(b1-4)[Fuc(a1-3)]GlcNAc
# In short: as §1
# Neu5Ac(a2-3)GalNAc = molecular target: Neu5Ac(a2-3)GalNAc
# In short: as §1
# [17] = molecular target: Neu5Ac(a2-3)GalNAc(b1-4)GlcNAc
# In short: as §1
# [18] = molecular target: Neu5Ac(a2-3)[GalNAc(b1-4)]Gal(b1-4)Glc
# In short: as §1
# [19] = molecular target: Neu5Ac(a2-3)[GalNAc(b1-4)]Gal(b1-4)GlcNAc
# In short: as §1
# [20] = molecular target: Neu5Ac(a2-3)[GalNAc(b1-4)]Gal(b1-4)GlcNAc(b1-3)GalNAc
# In short: as §1
# [21] = molecular target: Neu5Ac(a2-3)[Neu5Ac(a2-6)]GalNAc
# In short: as §1
# Neu5Ac(a2-6)Gal = molecular target: Neu5Ac(a2-6)Gal
# In short: as §1
binder,measurement,setting,value
B1,glycan array binding signal (z-score),[1],-0.148
same,glycan array binding signal (z-score),[2],-0.53
same,glycan array binding signal (z-score),[3],-0.655
same,glycan array binding signal (z-score),[4],-0.226
same,glycan array binding signal (z-score),[5],0.421
same,glycan array binding signal (z-score),[6],-0.005
same,glycan array binding signal (z-score),[7],0.036
same,glycan array binding signal (z-score),[8],-0.019
same,glycan array binding signal (z-score),[9],0.356
same,glycan array binding signal (z-score),[10],-0.593
same,glycan array binding signal (z-score),[11],-0.384
same,glycan array binding signal (z-score),[12],0.167
same,glycan array binding signal (z-score),[13],0.109
same,glycan array binding signal (z-score),[14],-0.122
same,glycan array binding signal (z-score),[15],-0.773
same,glycan array binding signal (z-score),[16],-0.291
same,glycan array binding signal (z-score),Neu5Ac(a2-3)GalNAc,0.613
same,glycan array binding signal (z-score),[17],-0.11
same,glycan array binding signal (z-score),[18],-0.096
same,glycan array binding signal (z-score),[19],0.062
same,glycan array binding signal (z-score),[20],-0.66
same,glycan array binding signal (z-score),[21],-0.098
same,glycan array binding signal (z-score),Neu5Ac(a2-6)Gal,-0.97

# 2 entries drawn at random from the list so far, as already listed:
binder,measurement,setting,value
B1,glycan array binding signal (z-score),[19],0.062
same,glycan array binding signal (z-score),[12],0.167

# From the supplement of paper PMC8728848
